{
  "source": "patent US20160115200A1",
  "about": "(XIGEN INFLAMMATION LTD., priority 2013, published 2016)",
  "assay": "general procedure: Fmoc solid-phase peptide synthesis; Fmoc-Rink amide-MBHA resin",
  "conditions": "whole synthesis, scale 0.7 mmol, acetate",
  "note": "Square brackets hold non-standard residues; d marks the D form.",
  "data": [
    {"substance": "H-[dR]KKR[dR]QRR[dR]RP[dK]RP[dA]TLNL[dF]-NH2 (SMILES CC(C)C[C@H](NC(=O)[C@H](CC(N)=O)NC(=O)[C@H](CC(C)C)NC(=O)[C@@H](NC(=O)[C@@H](C)NC(=O)[C@@H]1CCCN1C(=O)[C@H](CCCNC(=N)N)NC(=O)[C@@H](CCCCN)NC(=O)[C@@H]1CCCN1C(=O)[C@H](CCCNC(=N)N)NC(=O)[C@@H](CCCNC(=N)N)NC(=O)[C@H](CCCNC(=N)N)NC(=O)[C@H](CCCNC(=N)N)NC(=O)[C@H](CCC(N)=O)NC(=O)[C@@H](CCCNC(=N)N)NC(=O)[C@H](CCCNC(=N)N)NC(=O)[C@H](CCCCN)NC(=O)[C@H](CCCCN)NC(=O)[C@H](N)CCCNC(=N)N)[C@@H](C)O)C(=O)N[C@H](Cc1ccccc1)C(N)=O)", "values": [
      {"measurement": "final purity (method not given)", "value": "≧95%"}
    ]}
  ]
}
